Among the data in publication PMC7862700 are binding signal values, retold here.

Chains of the proteins cited; added tags and fusions are not shown. Lines headed by an entry give the natural chain unless they say otherwise; changes in a name come on top.
UniProt O43186: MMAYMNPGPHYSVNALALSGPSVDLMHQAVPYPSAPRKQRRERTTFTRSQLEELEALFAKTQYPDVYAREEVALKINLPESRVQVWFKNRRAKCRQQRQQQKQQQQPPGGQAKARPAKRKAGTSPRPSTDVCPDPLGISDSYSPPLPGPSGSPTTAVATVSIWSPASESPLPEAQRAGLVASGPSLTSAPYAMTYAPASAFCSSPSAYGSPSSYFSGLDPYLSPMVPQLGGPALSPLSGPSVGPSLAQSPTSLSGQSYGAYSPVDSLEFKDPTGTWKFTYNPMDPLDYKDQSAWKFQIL

The list shows a part of the results, in another mix than the full data. At the low end of the ranking the order means little.

The target of this assay is CRX (UniProt O43186). Nature of the assay: DAPPL (digital affinity profiling via proximity ligation, sequencing). Conditions: 10 mM Tris-HCl pH 7.5, 50 mM NaCl, 1 mM DTT, 4% glycerol, room temperature, 30 min; GST-TFs on glutathione beads, 16-mer random dsDNA library, 0.1% …; high values mean tight binding; double strand, one strand shown; scale: fold enrichment (6-mer frequency, TF over GST control).
For the sequence CAAACT, the binding signal came to 0.952. Turning to AAGCAA, the binding signal came out at 0.978. In turn, GCGGAA had a binding signal of 0.466.

Turning to GGTTCA, the binding signal came out at 0.86.

For CATTTG, the binding signal turned out to be 1.07. The result for GGCTAT reads 0.936. The result for TTCCCG reads 1.7; that for CGCCTG, 0.873. The sequence GTTACT yielded a binding signal of 1.03.

ATGGTG displayed a binding signal of 0.895.

Sequence AACCCC registered a binding signal of 1.21.

As for CCAAAC, the binding signal was determined as 0.895. The result for GCACAT reads 0.848. Under CTCGCA stands 1.2. The sequence TTGCAG yielded a binding signal of 1.1. The result for CATATC reads 0.944; that for ACTATT, 1.28; that for TAATCC, 7.84. TACCTA returned a binding signal of 1.55. Under AAACCG stands 0.916; under ATCCTC, 2.46; under TCACCA, 1.04. Take CCGAGC: the binding signal is 1.01.

ACTCGT returned a binding signal of 1.08.

Turning to GGCTAC, the binding signal stood at 0.889. TATAGC had a binding signal of 1.44. Under TGGCCC stands 0.85; under TGGTCC, 0.855. For the sequence CGTCAC, the binding signal amounted to 0.793. The result for AGCGCT reads 1.01; that for CTCTCG, 1.32.

On to CACATG, for which the binding signal stood at 0.855. Under CAGGAA stands 0.724; under GTCCTC, 0.87; under CCGCAG, 0.907. The sequence GAAAAC returned a binding signal of 0.811. Consider GGGTTC, for which the binding signal is 0.803. Under ACTAAT stands 2.71. Turning to AAAGGC, the binding signal was 1.03. As to CACCAC, the binding signal was found to be 0.837.
